According to paper doi:10.1101/2024.09.30.615192:
These are yes or no findings as the source states them, for the method shown. Binding seen in cells or lysates may run through a third protein. These calls come from enrichment with a bait or labelling near it, and not all partners need be listed.

Molecular target: T1, SLC9A9 (human) (UniProt Q8IVB4)
T1 sequence: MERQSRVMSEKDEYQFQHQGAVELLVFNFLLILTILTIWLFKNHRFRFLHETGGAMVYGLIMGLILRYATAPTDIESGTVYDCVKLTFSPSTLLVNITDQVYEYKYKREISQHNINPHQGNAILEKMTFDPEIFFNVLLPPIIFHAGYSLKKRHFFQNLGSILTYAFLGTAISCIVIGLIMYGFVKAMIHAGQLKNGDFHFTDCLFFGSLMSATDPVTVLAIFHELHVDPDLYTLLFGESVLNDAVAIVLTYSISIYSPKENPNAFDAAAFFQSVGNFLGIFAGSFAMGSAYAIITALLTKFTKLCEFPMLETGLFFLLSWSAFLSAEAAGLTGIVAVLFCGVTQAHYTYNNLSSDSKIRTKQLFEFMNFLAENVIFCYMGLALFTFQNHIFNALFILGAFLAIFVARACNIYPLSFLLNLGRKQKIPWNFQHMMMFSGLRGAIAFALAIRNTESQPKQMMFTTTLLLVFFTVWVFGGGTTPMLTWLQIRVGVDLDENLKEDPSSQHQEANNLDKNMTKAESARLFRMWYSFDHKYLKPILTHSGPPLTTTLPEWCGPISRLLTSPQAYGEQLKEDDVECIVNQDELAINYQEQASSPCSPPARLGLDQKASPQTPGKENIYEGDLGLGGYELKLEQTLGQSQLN
Assay: affinity purification with mass spectrometry

B1: calcium-binding protein CHP1 (protein, UniProt Q99653 1-195)
chain: MGSRASTLLRDEELEEIKKETGFSHSQITRLYSRFTSLDKGENGTLSREDFQRIPELAINPLGDRIINAFFPEGEDQVNFRGFMRTLAHFRPIEDNEKSKDVNGPEPLNSRSNKLHFAFRLYDLDKDEKISRDELLQVLRMMVGVNISDEQLGSIADRTIQEADQDGDSAISFTEFVKVLEKVDVEQKMSIRFLH
  binding: binds
